No constants are given. Whether binding was seen depends on the method and setting. Binding seen in cells or lysates may run through a third protein. Some entries that bind do so weakly or less than the wild type. For some assays here: Sequences can lack the tags named with a protein.
Tests used:
[1] = biological target: T1, NADPH oxidase organizer 1 (NoxO1), myc-tagged, overexpressed (human) (UniProt Q8NFA2); assay: proximity ligation; Duolink In situ Orange kit on fixed Hek293 cells overexpressing NoxO1 or empty vector; two primary antibodies 1:500
T1 sequence: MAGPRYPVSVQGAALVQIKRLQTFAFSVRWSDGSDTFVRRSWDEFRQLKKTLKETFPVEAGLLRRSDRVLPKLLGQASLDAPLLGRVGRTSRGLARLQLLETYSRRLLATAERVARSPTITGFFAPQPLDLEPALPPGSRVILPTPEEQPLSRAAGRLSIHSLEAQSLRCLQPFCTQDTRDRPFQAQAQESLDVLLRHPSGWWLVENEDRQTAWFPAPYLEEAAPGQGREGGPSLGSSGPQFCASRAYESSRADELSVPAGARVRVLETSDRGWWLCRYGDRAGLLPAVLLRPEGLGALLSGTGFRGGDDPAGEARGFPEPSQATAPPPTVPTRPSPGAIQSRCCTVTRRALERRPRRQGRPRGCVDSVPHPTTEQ

Protein sequences, listed by entry. Tags and fused reporters are not part of them.
UniProt Q96RT1: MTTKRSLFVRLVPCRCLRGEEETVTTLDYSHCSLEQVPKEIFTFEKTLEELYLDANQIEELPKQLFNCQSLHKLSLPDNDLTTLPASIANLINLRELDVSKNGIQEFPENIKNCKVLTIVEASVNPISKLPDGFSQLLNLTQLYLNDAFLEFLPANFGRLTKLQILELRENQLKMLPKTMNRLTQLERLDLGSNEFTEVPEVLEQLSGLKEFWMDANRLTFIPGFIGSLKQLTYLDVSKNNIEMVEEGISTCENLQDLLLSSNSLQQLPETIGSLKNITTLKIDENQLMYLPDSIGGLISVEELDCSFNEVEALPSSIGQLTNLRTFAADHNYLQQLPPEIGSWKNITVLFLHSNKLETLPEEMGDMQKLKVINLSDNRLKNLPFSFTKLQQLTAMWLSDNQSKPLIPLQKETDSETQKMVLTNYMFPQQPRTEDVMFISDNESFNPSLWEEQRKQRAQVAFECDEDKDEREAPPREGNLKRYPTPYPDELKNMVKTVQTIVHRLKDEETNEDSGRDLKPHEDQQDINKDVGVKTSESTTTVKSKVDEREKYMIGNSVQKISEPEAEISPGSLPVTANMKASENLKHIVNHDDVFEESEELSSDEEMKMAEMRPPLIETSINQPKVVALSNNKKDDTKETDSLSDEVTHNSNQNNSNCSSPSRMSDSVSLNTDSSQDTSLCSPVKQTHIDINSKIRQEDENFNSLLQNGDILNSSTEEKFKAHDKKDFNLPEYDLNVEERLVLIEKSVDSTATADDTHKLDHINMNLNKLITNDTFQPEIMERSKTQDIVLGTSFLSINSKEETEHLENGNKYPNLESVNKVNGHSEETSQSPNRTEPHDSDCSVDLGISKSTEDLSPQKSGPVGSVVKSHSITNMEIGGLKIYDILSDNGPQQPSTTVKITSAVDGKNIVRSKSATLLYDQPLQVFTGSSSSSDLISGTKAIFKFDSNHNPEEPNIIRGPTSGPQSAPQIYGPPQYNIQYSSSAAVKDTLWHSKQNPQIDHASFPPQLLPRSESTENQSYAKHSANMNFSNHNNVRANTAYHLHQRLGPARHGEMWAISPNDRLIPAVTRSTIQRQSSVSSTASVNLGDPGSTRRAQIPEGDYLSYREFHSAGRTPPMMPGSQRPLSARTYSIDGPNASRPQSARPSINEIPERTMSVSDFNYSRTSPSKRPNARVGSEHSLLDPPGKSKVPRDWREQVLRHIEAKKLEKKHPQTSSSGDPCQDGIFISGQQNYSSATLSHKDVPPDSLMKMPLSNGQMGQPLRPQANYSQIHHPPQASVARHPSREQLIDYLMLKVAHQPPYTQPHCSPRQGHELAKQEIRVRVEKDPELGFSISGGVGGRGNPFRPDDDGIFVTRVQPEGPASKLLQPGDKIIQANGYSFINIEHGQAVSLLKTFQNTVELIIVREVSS

[2] = biological target: T1, NADPH oxidase organizer 1 (NoxO1), myc-tagged, overexpressed (human); assay: proximity ligation; as a4, with cells treated with EGF before fixation; detection of myc (NoxO1) and EGFR
[3] = biological target: ErbB2 (Her2) (human (endogenous in Hek293)) (UniProt P04626); assay: proximity ligation; Duolink In situ Orange kit on fixed Hek293 cells overexpressing NoxO1 or empty vector; two primary antibodies 1:500
[4] = biological target: T1, NADPH oxidase organizer 1 (NoxO1), myc-tagged, overexpressed (human); assay: co-IP; Dynabeads Protein G IP kit; 500 ug lysate; target antibodies or IgG control overnight at 4 °C; the antibody used and the panel that shows it are not told

binding [1]	binding [3]	binding [4]	Substance	binding [2]
binds			Epidermal growth factor receptor (EGFR) (from UniProt P00533 25-1210)	no binding (condition: after EGF stimulation of the cells)
binds	binds	binds	ErbB2 interacting protein (Erbin) (from UniProt Q96RT1 1-1412)	

Reference: paper PMC11536020
